Measurements published in publication PMC4944119.
Results are given in words; binding and its absence hold for the method and conditions named. In cells and extracts the contact can be indirect. Some entries that bind do so weakly or less than the wild type.

Assays:
[1] = target: T1, gp91^phox, membrane-bound catalytic subunit of NADPH oxidase isoform 2 (NOX2) (mouse (endogenous in FDB muscle of BALB/c mice)) (UniProt Q61093); test: proximity ligation; Duolink in situ PLA on fixed 10 um cryosections of FDB muscle, primary antibodies against p47phox and gp91phox (proximity <40 nm); mice at rest or exercised, treated with vehicle or apocynin
T1 sequence: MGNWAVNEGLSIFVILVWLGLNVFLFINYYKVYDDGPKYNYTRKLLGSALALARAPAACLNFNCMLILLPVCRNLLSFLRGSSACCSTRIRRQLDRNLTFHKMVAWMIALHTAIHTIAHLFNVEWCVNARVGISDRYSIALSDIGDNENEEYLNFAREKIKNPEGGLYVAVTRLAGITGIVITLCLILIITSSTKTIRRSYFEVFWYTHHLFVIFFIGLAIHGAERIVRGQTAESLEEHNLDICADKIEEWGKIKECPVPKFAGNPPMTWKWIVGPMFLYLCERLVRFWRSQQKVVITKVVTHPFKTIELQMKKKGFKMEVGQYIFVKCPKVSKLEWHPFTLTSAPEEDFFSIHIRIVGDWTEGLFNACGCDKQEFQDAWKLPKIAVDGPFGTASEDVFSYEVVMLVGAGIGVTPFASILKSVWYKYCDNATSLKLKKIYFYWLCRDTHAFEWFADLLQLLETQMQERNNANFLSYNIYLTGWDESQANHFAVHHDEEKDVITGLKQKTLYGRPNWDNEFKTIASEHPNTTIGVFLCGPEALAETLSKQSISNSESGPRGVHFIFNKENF

[2] = target: T1, gp91^phox, membrane-bound catalytic subunit of NADPH oxidase isoform 2 (NOX2) (mouse (endogenous in FDB muscle of BALB/c mice)); test: co-IP; whole FDB muscle lysates (100 ug protein; 0.1% Nonidet P-40, 140 mM NaCl, pH 7.4) of vehicle-treated mice at rest or after 60 min of swimming exercise; immunoprecipitating antibody 4 h, A/G agarose, immunoblot; which subunit was precipitated is not stated

binding [1]: binds
binding [2]: binds
B1: p47^phox, cytosolic regulatory subunit of NADPH oxidase isoform 2 (NOX2) (protein, UniProt Q09014 1-390)
chain: MGDTFIRHIALLGFEKRFIPSQHYVYMFLVKWQDLSEKVVYRKFTEIYEFHKMLKEMFPIEAGEIHTENRVIPHLPAPRWFDGQRAAESRQGTLTEYFNGLMGLPVKISRCPHLLDFFKVRPDDLKLPTDSQAKKPETYLVPKDGKNNVADITGPIILQTYRAIADYEKSSGTEMTVATGDVVDVVEKSESGWWFCQMKTKRGWVPASYLEPLDSPDEAEDPDPNYAGEPYVTIKAYAAVEEDEMSLSEGEAIEVIHKLLDGWWVVRKGDITGYFPSMYLQKAGEEITQAQRQIRGRGAPPRRSTIRNAQSIHQRSRKRLSQDTYRRNSVRFLQQRRRPGRPGPLSTDGTKDNPSTPRVKPQPAVPPRPSSDLILHRCTESTKRKLTSAV
